According to paper PMC5369963:
No constants are given. Whether binding was seen depends on the method and setting. Binding seen in cells or lysates may run through a third protein. Some results given as binding are weak or reduced against the parent protein; the word gives no strength.

The chains behind the UniProt entries cited, without tags or fusion partners. Where a name states a change or a piece, a line headed by the entry shows the natural chain unless it says otherwise. A line that says so, or that is headed by a name, gives the form on record, which may keep a tag or linker.
ULF/TRIP12 (human (endogenous in HeLa)) (Q14669, form named): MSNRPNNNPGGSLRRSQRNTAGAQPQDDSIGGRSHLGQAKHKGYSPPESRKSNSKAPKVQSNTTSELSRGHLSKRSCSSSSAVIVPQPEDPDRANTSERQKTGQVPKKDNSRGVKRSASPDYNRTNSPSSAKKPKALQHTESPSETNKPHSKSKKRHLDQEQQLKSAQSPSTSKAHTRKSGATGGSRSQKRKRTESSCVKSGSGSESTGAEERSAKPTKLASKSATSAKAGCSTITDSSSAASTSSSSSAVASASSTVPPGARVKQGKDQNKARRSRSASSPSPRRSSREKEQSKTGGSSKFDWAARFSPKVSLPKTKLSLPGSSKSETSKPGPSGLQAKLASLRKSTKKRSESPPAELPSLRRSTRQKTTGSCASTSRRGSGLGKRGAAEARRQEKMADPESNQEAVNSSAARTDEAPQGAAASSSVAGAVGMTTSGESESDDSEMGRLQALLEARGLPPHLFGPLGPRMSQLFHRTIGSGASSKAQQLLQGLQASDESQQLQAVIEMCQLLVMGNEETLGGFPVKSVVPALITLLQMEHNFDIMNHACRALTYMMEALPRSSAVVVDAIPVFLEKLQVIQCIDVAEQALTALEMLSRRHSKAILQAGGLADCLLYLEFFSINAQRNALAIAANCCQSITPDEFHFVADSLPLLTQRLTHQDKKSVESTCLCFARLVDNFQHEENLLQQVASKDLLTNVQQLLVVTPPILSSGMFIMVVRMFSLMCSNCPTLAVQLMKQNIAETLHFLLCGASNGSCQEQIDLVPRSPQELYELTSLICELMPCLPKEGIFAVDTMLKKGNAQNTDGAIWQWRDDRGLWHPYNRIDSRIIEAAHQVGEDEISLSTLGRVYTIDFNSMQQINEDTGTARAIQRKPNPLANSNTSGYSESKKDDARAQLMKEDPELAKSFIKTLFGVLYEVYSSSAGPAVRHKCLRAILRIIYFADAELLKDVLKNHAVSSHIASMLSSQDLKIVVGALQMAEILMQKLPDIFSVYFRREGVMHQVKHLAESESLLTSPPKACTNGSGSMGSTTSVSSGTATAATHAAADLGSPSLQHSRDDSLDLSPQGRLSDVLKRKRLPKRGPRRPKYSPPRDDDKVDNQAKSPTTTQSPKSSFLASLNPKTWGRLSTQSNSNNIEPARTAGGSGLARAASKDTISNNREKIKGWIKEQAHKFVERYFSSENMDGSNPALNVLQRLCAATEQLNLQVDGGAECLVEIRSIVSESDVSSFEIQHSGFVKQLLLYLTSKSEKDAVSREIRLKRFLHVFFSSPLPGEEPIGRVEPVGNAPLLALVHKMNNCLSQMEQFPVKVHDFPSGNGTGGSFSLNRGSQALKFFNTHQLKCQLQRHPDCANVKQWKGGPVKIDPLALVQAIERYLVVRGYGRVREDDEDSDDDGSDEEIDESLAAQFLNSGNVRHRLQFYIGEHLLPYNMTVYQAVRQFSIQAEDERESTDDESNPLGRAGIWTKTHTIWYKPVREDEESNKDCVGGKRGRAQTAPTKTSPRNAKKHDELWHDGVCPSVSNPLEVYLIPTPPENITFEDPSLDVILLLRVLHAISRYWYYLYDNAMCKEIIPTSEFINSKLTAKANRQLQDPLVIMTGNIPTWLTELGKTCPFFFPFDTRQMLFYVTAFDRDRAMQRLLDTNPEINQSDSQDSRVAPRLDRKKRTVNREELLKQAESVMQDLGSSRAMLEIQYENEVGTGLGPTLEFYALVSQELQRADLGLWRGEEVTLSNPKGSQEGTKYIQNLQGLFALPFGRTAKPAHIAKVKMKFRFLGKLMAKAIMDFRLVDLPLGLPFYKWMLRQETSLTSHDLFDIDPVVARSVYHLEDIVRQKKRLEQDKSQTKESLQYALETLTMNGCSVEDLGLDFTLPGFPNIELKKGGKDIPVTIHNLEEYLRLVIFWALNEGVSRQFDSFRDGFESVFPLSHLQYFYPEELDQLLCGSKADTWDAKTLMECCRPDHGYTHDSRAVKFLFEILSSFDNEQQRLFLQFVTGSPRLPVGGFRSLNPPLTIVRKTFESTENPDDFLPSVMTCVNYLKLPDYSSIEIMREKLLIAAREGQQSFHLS

Biological target: ULF/TRIP12 (human (endogenous in HeLa)) (UniProt Q14669)
Experiment: co-IP; HeLa cells transfected with GFP or GFP-GLT plasmids for 24 h; lysates immunoprecipitated with anti-ULF or isotype-matched control antibodies

binding: binds
Substance: endogenous ARF (from UniProt Q8N726 1-132)
